According to patent publication US20180094059A1:
Results are given in words; binding and its absence hold for the method and conditions named. Some binding calls cover weakened binding; strength is not graded here.

How the values were obtained:
DcR1-Fc (human) = target: T1, DcR1-Fc (human) (UniProt O14798); assay: ELISA, coated DcR1-Fc (3 µg/ml), anti-Flag-HRP detection
T1 sequence (looked up): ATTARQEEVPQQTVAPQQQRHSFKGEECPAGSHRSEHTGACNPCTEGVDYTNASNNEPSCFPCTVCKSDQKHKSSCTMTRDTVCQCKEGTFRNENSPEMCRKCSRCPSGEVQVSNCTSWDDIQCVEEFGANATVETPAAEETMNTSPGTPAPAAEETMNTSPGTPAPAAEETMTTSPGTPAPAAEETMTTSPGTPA

OPG-Fc (human) = target: T2, OPG-Fc (human) (UniProt O00300); assay: ELISA, coated OPG-Fc (3 µg/ml), anti-Flag-HRP detection
T2 sequence (looked up): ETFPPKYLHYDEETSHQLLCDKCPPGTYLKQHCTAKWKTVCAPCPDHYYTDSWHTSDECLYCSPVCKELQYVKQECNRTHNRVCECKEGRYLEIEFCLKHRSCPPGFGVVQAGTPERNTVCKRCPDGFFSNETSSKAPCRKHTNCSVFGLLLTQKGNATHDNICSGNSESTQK

B1: Db10-Glyco-scTRAIL3-FAVSGAA (protein)
chain: LEASDYKDDDDKGAEVQLVESGGGLVQPGGSLRLSCAASGFSLTNYGVHWVRQAPGKGLEWLGVIWSGGNTDYNTPFTSRFTISRDNSKNTLYLQMNSLRAEDTAVYYCARALTYYDYEFAYWGQGTTVTVSSGGGGSGGGGSDIQLTQSPSFLSASVGDRVTITCRASQSIGTNIHWYQQKPGKAPKLLIKYASESISGVPSRFSGSGSGTEFTLTISSLQPEDFATYYCQQNNNWPTTFGAGTKLEIKRAAAGNGTSNGTSEFGGAAAHITGTRGRSNTLSSPNSKNEKALGRKINSWESSRSGHSFLSNLHLRNGELVIHEKGFYYIYSQTYFRFQEEIKENTKNDKQMVQYIYKYTSYPDPILLMKSARNSCWSKDAEYGLYSIYQGGIFELKENDRIFVSVTNEHLIDMDHEASFFGAFAVSGAAAHITGTRGRSNTLSSPNSKNEKALGRKINSWESSRSGHSFLSNLHLRNGELVIHEKGFYYIYSQTYFRFQEEIKENTKNDKQMVQYIYKYTSYPDPILLMKSARNSCWSKDAEYGLYSIYQGGIFELKENDRIFVSVTNEHLIDMDHEASFFGAFAVSGAAAHITGTRGRSNTLSSPNSKNEKALGRKINSWESSRSGHSFLSNLHLRNGELVIHEKGFYYIYSQTYFRFQEEIKENTKNDKQMVQYIYKYTSYPDPILLMKSARNSCWSKDAEYGLYSIYQGGIFELKENDRIFVSVTNEHLIDMDHEASFFGAFAVS
modifications: glycosylated connecting peptide
binding (DcR1-Fc (human)): binds | binding (OPG-Fc (human)): binds
